# The supplement of paper PMC10849652
# By UniProt entry, the sequences of proteins in these tests, tags left out. Where a name states a change or a piece, a line headed by the entry shows the natural chain unless it says otherwise.
# UniProt Q9ULP9: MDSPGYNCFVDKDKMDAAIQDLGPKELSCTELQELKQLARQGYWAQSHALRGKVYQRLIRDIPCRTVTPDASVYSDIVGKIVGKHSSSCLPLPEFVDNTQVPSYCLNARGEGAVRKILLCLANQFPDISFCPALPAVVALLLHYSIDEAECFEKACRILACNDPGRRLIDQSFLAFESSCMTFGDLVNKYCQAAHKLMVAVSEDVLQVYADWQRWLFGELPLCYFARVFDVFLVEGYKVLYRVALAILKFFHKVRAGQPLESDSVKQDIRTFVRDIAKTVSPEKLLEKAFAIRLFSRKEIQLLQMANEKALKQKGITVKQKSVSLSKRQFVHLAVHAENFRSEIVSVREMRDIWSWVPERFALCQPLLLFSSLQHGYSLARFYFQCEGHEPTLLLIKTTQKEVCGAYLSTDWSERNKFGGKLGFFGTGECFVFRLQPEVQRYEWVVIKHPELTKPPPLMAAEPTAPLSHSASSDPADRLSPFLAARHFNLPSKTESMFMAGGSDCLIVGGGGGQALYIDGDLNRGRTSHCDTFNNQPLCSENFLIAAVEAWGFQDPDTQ
# UniProt Q96BZ9: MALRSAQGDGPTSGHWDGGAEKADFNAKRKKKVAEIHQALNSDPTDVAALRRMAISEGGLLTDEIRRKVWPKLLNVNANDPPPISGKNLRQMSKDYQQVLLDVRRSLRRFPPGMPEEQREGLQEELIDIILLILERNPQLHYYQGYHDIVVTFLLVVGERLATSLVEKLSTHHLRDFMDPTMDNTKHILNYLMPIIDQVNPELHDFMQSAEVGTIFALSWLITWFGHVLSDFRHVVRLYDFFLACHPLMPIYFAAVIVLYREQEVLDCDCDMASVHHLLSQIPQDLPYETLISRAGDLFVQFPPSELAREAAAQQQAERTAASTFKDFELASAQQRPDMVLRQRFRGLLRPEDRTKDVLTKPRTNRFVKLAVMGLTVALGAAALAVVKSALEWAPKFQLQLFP
# UniProt Q9P2M4: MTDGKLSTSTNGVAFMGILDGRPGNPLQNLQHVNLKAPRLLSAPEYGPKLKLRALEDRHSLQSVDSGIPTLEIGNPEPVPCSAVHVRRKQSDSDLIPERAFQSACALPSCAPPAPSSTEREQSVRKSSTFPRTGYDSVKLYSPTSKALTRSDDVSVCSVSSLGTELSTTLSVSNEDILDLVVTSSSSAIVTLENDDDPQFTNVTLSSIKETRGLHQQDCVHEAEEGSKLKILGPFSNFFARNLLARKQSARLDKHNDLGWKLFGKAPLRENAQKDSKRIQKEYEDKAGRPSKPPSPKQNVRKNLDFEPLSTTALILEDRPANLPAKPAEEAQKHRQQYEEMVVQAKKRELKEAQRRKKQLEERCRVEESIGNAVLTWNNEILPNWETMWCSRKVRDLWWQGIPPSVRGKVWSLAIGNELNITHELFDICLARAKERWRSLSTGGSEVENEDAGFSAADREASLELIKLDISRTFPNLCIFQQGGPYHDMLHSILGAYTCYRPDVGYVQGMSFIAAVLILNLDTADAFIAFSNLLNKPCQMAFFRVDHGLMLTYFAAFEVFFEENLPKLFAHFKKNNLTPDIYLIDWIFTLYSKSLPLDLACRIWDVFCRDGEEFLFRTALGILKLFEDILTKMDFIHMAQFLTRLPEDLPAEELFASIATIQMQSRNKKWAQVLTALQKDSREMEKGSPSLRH
# UniProt Q8NHU6: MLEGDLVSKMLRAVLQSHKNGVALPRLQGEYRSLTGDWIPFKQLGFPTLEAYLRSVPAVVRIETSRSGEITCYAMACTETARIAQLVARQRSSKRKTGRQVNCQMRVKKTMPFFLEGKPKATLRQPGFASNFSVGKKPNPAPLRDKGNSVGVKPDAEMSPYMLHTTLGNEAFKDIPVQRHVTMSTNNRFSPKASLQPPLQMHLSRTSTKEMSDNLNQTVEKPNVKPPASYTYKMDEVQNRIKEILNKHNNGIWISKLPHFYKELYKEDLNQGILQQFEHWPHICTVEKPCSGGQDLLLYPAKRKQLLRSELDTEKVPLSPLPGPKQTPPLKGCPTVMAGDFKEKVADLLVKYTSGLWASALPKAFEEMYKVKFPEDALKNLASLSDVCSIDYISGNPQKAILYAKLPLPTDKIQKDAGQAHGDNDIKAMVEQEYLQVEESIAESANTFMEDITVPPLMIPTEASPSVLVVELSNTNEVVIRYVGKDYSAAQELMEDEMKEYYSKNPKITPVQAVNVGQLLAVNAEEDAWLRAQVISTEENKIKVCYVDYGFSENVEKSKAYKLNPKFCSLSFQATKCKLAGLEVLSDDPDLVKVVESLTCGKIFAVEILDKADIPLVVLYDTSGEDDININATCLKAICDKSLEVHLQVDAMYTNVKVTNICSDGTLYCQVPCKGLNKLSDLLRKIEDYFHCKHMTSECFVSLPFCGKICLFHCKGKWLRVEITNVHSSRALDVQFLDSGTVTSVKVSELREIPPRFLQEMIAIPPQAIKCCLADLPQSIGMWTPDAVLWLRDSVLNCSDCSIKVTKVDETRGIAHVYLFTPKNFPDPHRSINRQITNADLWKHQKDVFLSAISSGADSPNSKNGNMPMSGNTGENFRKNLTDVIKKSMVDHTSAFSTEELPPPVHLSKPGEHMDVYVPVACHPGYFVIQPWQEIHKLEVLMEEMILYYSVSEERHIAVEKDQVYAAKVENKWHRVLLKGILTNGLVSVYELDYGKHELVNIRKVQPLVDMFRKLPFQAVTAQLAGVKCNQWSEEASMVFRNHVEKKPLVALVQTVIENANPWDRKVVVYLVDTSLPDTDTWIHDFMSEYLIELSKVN
# UniProt Q6NXT6: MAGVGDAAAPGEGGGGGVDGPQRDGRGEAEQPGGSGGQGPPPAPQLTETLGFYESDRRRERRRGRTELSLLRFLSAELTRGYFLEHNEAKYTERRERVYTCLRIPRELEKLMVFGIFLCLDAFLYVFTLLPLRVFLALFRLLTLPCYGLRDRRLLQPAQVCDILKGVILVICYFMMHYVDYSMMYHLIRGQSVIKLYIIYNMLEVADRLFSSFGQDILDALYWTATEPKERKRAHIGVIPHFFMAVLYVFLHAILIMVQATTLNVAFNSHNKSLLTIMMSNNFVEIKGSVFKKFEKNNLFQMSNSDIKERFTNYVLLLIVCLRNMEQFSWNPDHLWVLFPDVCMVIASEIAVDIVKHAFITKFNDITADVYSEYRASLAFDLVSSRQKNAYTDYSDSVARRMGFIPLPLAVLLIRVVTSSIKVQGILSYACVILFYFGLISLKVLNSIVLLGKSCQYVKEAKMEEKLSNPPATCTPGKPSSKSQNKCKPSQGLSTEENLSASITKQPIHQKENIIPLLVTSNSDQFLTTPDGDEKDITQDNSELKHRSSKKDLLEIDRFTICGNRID
# UniProt P15923: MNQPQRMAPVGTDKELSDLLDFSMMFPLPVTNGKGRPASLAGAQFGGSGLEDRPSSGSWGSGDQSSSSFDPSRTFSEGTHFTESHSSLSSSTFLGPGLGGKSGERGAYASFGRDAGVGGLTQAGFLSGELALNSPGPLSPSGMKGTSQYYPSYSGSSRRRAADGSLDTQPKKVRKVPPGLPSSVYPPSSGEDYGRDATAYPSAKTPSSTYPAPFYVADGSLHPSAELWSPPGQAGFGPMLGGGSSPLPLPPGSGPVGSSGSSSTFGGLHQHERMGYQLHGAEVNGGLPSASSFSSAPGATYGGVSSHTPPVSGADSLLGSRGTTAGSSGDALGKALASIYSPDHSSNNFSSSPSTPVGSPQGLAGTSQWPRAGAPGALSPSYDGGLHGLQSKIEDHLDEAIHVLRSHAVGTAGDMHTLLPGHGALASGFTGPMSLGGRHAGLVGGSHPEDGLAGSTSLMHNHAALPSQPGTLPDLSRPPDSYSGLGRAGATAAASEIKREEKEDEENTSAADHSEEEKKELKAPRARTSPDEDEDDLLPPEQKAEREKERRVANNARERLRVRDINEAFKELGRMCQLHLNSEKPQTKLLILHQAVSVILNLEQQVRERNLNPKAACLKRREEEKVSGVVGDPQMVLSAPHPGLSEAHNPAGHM
# UniProt Q5VWP2: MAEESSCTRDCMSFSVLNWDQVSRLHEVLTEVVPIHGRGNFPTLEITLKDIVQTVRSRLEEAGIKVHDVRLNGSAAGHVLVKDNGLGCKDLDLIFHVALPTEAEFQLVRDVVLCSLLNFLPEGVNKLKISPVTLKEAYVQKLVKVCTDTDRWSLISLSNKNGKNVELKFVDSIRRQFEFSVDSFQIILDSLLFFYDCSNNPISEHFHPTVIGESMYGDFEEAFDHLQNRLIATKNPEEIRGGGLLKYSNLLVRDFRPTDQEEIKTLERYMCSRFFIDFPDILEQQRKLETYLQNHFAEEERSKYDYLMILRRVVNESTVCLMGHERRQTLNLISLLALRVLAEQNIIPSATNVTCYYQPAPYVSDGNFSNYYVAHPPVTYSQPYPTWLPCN
# The other results are listed elsewhere or left out.
# Experiments:
# Assay in all cases: log2 fold change, soluble protein after heating vs DMSO (PISA); higher = thermal stabilisation; K562 lysate, 10 uM; active = over 0.2 and 3.5 SD of the protein, either way, in both replicates (recomputed)
# vemurafenib = compound: CCCS(=O)(=O)Nc1ccc(F)c(C(=O)c2c[nH]c3ncc(-c4ccc(Cl)cc4)cc23)c1F [vemurafenib]
# Summary of the method: (§1)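 The values are log-two fold changes in thermal stability compared with solvent controls and come from duplicates. They were obtained by TMTpro 16plex LC-MS/MS, with channel sums equalised, on the supernatant after 21,000xg for 90 min. That supernatant came from crude K562 extract at 1 mg/mL protein treated with 10 μM compound for 30 min, heated for 3 min across 48°C-58°C, pooled and brought to 0.5% NP-40 at 4°C.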
# [1] = compound: CCCS(=O)(=O)Nc1ccc(F)c(C(=O)c2c[nH]c3ncc(Cl)cc23)c1F
# Summary of the method: as §1
# barasertib = compound: CCN(CCCOc1ccc2c(Nc3cc(CC(=O)Nc4cccc(F)c4)[nH]n3)ncnc2c1)CCOP(=O)(O)O [barasertib]
# Summary of the method: as §1
# [2] = compound: CC[C@@H]1C(=O)N(C)c2cnc(Nc3ccc(C(=O)NC4CCN(C)CC4)cc3OC)nc2N1C1CCCC1
# Summary of the method: as §1
# volasertib = compound: CC[C@@H]1C(=O)N(C)c2cnc(Nc3ccc(C(=O)N[C@H]4CC[C@H](N5CCN(CC6CC6)CC5)CC4)cc3OC)nc2N1C(C)C [volasertib]
# Summary of the method: as §1
# [3] = compound: CCn1c(C(=O)N(C2CC2)C2CC2)cc2c3c(ncn3C)c(Nc3cc(C)n(C)n3)nc21
# Summary of the method: as §1
# [4] = compound: CCn1cc(-c2ccnc3[nH]c(-c4cccc(CN(C)C)c4)cc23)c(-c2ccc(NC(=O)N(C)C)cc2)n1
# Summary of the method: as §1
# [5] = compound: CN1CCC(CNc2ccc3ncc(-c4cccc(OC(F)(F)F)c4)n3n2)CC1
# Summary of the method: as §1
# saracatinib = compound: CN1CCN(CCOc2cc(OC3CCOCC3)c3c(Nc4c(Cl)ccc5c4OCO5)ncnc3c2)CC1 [saracatinib]
# Summary of the method: as §1
# sotrastaurin = compound: CN1CCN(c2nc(C3=C(c4c[nH]c5ccccc45)C(=O)NC3=O)c3ccccc3n2)CC1 [sotrastaurin]
# Summary of the method: as §1
# alvocidib = compound: CN1CC[C@H](c2c(O)cc(O)c3c(=O)cc(-c4ccccc4Cl)oc23)[C@H](O)C1 [alvocidib]
# Summary of the method: as §1
# Tubastatin A = compound: CN1CCc2c(c3ccccc3n2Cc2ccc(C(=O)NO)cc2)C1 [Tubastatin A]
# Summary of the method: as §1
# [6] = compound: CNC(=O)C1=CC=CC=C1NC2=NC(=NC=C2Cl)NC3=C(C=C(C=C3)N4CCOCC4)OC
# Summary of the method: as §1
# defactinib = compound: CNC(=O)c1ccc(Nc2ncc(C(F)(F)F)c(NCc3nccnc3N(C)S(C)(=O)=O)n2)cc1 [defactinib]
# Summary of the method: as §1
# [7] = compound: CNc1nc(-c2ccc3c(N)n[nH]c3c2)cc(N2C[C@@H](C(=O)NC3CCCCC3)CC[C@H]2C)n1
# Summary of the method: as §1
# encorafenib = compound: COC(=O)N[C@@H](C)CNc1nccc(-c2cn(C(C)C)nc2-c2cc(Cl)cc(NS(C)(=O)=O)c2F)n1 [encorafenib]
# Summary of the method: as §1
# [8] = compound: COC(=O)[C@H](CCSC)NC(=O)C1=C(C=C(C=C1)NC[C@H](CS)N)C2=CC=CC=C2
# Summary of the method: as §1
# alisertib = compound: COc1cc(Nc2ncc3c(n2)-c2ccc(Cl)cc2C(c2c(F)cccc2OC)=NC3)ccc1C(=O)O [alisertib]
# Summary of the method: as §1
# [9] = compound: COc1cc2nc(-c3cc(F)ccc3O)nc(N[C@@H]3CNC[C@H]3C(C)(C)O)c2cc1OC
# Summary of the method: as §1
# gefitinib = compound: COc1cc2ncnc(Nc3ccc(F)c(Cl)c3)c2cc1OCCCN1CCOCC1 [gefitinib]
# Summary of the method: as §1
Target,log2 fold change (vemurafenib),log2 fold change [1],log2 fold change (barasertib),log2 fold change [2],log2 fold change (volasertib),log2 fold change [3],log2 fold change [4],log2 fold change [5],log2 fold change (saracatinib),log2 fold change (sotrastaurin),log2 fold change (alvocidib),log2 fold change (Tubastatin A),log2 fold change [6],log2 fold change (defactinib),log2 fold change [7],log2 fold change (encorafenib),log2 fold change [8],log2 fold change (alisertib),log2 fold change [9],log2 fold change (gefitinib)
TBC1D24 (UniProt Q9ULP9),inactive: 0.048,inactive: 0.019,inactive: 0.002,inactive: -0.066,inactive: -0.079,inactive: -0.03,inactive: -0.057,inactive: -0.022,inactive: 0.032,inactive: 0.028,inactive: 0.008,inactive: -0.064,inactive: 0.022,inactive: 0.001,inactive: -0.037,inactive: 0.025,inactive: 0.015,inactive: 0.009,inactive: 0.019,inactive: 0.001
TBC1D20 isoform 3 (UniProt Q96BZ9),inactive: -0.088,inactive: -0.069,active: 0.438,inactive: 0.043,inactive: 0.008,inactive: 0.059,inactive: 0.046,inactive: -0.033,inactive: -0.038,inactive: -0.096,inactive: -0.011,inactive: -0.131,inactive: -0.017,inactive: 0.166,inactive: 0.109,inactive: 0.037,inactive: -0.047,–,inactive: -0.021,–
TAF9B (UniProt Q9HBM6),inactive: 0.01,inactive: 0.093,inactive: -0.108,inactive: 0.057,inactive: 0,inactive: 0.088,inactive: -0.004,inactive: 0.034,inactive: 0.019,inactive: 0.017,inactive: 0.053,inactive: 0.053,inactive: 0.113,inactive: 0.031,inactive: 0.085,inactive: 0.115,inactive: -0.202,–,inactive: -0.154,–
TBC1D14 (UniProt Q9P2M4),inactive: 0.011,inactive: 0.014,inactive: -0.222,inactive: -0.115,inactive: -0.022,inactive: 0.063,inactive: -0.026,inactive: -0.058,inactive: 0.031,inactive: 0.01,inactive: -0.033,inactive: -0.144,inactive: 0.072,inactive: 0.132,inactive: 0.03,inactive: 0.156,inactive: 0.076,inactive: -0.023,inactive: -0.086,inactive: 0.065
TDRD7 (UniProt Q8NHU6),inactive: 0.02,inactive: -0.035,inactive: -0.003,inactive: -0.008,inactive: 0,inactive: 0.027,inactive: -0.031,inactive: 0.009,inactive: 0.025,inactive: 0.013,inactive: -0.078,inactive: -0.058,inactive: 0.014,inactive: -0.052,inactive: -0.024,inactive: -0.005,inactive: 0.015,inactive: 0.011,inactive: 0.008,inactive: 0.083
TAPT1 (UniProt Q6NXT6),inactive: 0.031,inactive: 0.043,inactive: -0.039,inactive: 0.024,inactive: 0.028,inactive: -0.026,active: -0.229,inactive: 0.106,inactive: -0.014,inactive: -0.002,inactive: -0.101,inactive: 0.037,inactive: -0.086,inactive: 0.047,inactive: 0.056,inactive: 0.053,inactive: -0.074,inactive: -0.016,inactive: -0.006,inactive: 0.055
TCF3 (UniProt P15923),inactive: -0.01,inactive: 0.002,inactive: 0.012,inactive: 0.129,inactive: 0.002,inactive: 0.047,inactive: 0.028,inactive: 0.043,inactive: -0.158,inactive: 0.002,inactive: -0.039,inactive: -0.066,inactive: 0.034,inactive: 0.089,inactive: 0.19,inactive: 0.135,inactive: -0.051,inactive: 0.047,inactive: 0.027,inactive: 0.023
TENT5C (UniProt Q5VWP2),inactive: 0.055,inactive: 0.055,inactive: 0.148,inactive: -0.028,inactive: 0.104,inactive: -0.008,inactive: 0.021,inactive: 0.03,–,inactive: -0.015,inactive: 0.007,inactive: 0.027,inactive: -0.003,inactive: -0.006,–,inactive: -0.077,inactive: -0.018,inactive: 0.035,inactive: 0.041,inactive: -0.031
